Variants at the background level are over-represented here.
B1: tRNA (parent)
chain: GUUCCGUUGGCGUAAUGGUAACGCGUCUCCCUCCUAAGGAGAAGACUGCGGGUUCGAGUCCCGUACGGAACG

Variants of: B1
Test: yeast fitness relative to wild type (ratio to wild type); higher = fitter; tRNA-Arg(CCU), competitive growth, 37 C, YPD
Procedure, shortened: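 For this measurement, the tRNA-Arg(CCU) gene was varied by chemical synthesis at a 3% per-site mutation rate across 69 sites, and each variant was placed at the native genomic locus in Saccharomyces cerevisiae. The pooled strains went through a 24-hour competition in YPD at 37°C in six parallel replicates, with amplicons from start and end populations read by 100-nucleotide paired-end sequencing. Darwinian fitness relative to wild type followed from the change in each genotype's frequency. Genotypes needed ≥ 100 starting reads, and estimates < 0.5 were set to 0.5.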

Variant | yeast fitness
GUUCCGUUGGCGUAAUGGUAACGCGUCUCCCUCCUAUGGAGAAGACUGCGGGUUCGAGUCCCGUUCGGCACG | ≤ 0.5
GUUCCGUUGGCGUAAUGGUAACGCGUCUUCCUCAUAAGGAGAAGACUGCGAGUUCGAGUCCCGUACGGAACG | 0.664
GUUCCGUUGGCGUAAGGGUAACGCGUCUCCUUCCUAAGGAGUAGACUGCGGGUUCGAGUCCCGUACGGUACG | ≤ 0.5
GUUCCGUUGGCGUAAUGGUAACGCGUCUCCCUCCUAAGGUGCAGACUGCGGGUUCGAGUCCCGUAUGGAACG | ≤ 0.5
GUUCCGUUGGCGUAACAGUAACGCGUCUCCCUCCUAAGGAGAAGACUGUGGGUUCGAGUCCCGUACGGAGCG | ≤ 0.5
GUUCCGUUGGCGUAUUGGUAACGCGUCUCCCUCCUAAGGAGAAGACUGGGGGUUCGAGUCCCGUACGGAGCG | 0.576
GGUCCGUUGGCGUAAUGGUACUGCGUCUCCCUCCUAAGGAGAAGACUGAGGGUUCGAGUCCCGUACGGAACG | ≤ 0.5
GUUCCGUUGGCGCAAUGAUAACGCGUCUCCCUCCUAAGGGGAAGACUGCGGGUUCGAGUCCCGUACGGAACG | ≤ 0.5
GUUCCGUUGGCGUACUGGUUACGCGUCUCACUCUUAAGAAGAAGACUGCGGGUUGGAGUCCCGUACGGAACG | ≤ 0.5
GUCCCGUUGGCGUAAUGGUAACGCGUCUCUCUCCUAGGGAGAAGACUGCGGGUUCGAGACCCGUACGGAACG | ≤ 0.5
GUUCCGUUGGCGUAAUGGUAACGCGUCUCCCUCAUAAGGAGAAGACUGAGGGUUCGAGGCCCGUAUGGAACG | ≤ 0.5
GUUCCGUUGGCGUAAUGGUAACGCGUCUCCCUCCUAAGGAGAAGACCGCGGGCUCGAGUCCCGUACGGAACG | 0.795
GUUCCGUUGGAGUAUUGGUCACGCGUCUCCCUCGUAAGGAGAAGACUGCGGGUUCGAGUCCCGUUCGGAACG | ≤ 0.5
GUACCGUUGGCGUGGUGGUUACGCGUCUCCCUCCUAGGGAAAAGACUGCGGGUUCGAGUCCCGUACGGCACG | ≤ 0.5
GUUCCGUUGGUGUAAUGGUAACGCGUCUCAUUCCUAAGGAGAAGCCUGCGGGUUGGAGUCCCGUACGGAACG | ≤ 0.5
GUUCUGUUGGCGUAAUGGUAACGUGUCUCCCUCCUAAGGAGAAGACUGCGGGUUCGAGUCCCGUACGGCACG | 0.777
GUUCCGUUGGCGUAAUGGUAACGCGUCUCCCUCCUUAGGUGAAGACUGGGGGUUCGAGUCACGUACGGAACG | ≤ 0.5
GUUCCGUUGGGGUAAUGGUAACGCGUCCCCCUCCUAAGGAGACGACUGCGGGUUCGAGUCCCGUACGGAACG | ≤ 0.5
GUUCAGUUAGCGUAAUGGUAACGCGUCUCCCUCCUAAGGAAAAGACUGCGGGCUCGAGUCCCGAACGGAACG | ≤ 0.5
GUUCCGUUGGCGUAAUGGUAACGCGUCUCCCUCCUAAGGAGAAGACGGCGGGUUCGAGUCUCGUACGGCACG | ≤ 0.5
GUUCAGUUGGCGUAAUGGUUACGCGUCUCCCUCCUAAGGAGAAGACUGCGGGUUUGAGUCUCGUGCGGUACG | ≤ 0.5
GUUCCGUUGGCGUAAUGGUAACGCGUCUCCCUCCUAAGGAGAAGACGGGGGGUUCGAGUGCCGUACGGAUCG | ≤ 0.5
GUUCCGUUGGCGUAUUGGUAACGCGUCUCCCUCCUAAGGAGAAGACUACGGGUUCGAGUCCCGUACGGAACG | 0.763
GUUCCGUUGGCGUAAUGGUAACGCGUCUCCCUCCUAAGGAGAAGACUGCGGGUUCGAGACCCGUACGAAACG | 0.791
GUUCCGUUGGCGUAAUGGUAACGGGUCUCGCUCCUAAGAAGAAGACUGCGAGUUCGAGUCCCGUACGGAACG | ≤ 0.5

Variant | yeast fitness
GUUCGGUUGGGGUAAUGGUAACGCGUCUCCCUCCCAAGGAGAAGACUGCGGGUUCGAGUCCCGUACAGAACG | ≤ 0.5
GUUCCGUUGCCGUAAUGGUAACGCGUCUCCCUCCUUAGGCGAAGACUGCGGGUUCGAGUGCCGUACGGAACG | ≤ 0.5
GUUCCGUUGGUGUAAUGGUAACGCGUCUCCCUCCUAAGGAGUACACUGCGGGUACGAGUCCCGUACGGAACG | ≤ 0.5
GUUCCGUUGGCGUAGUGGUAGCGCGUCUGCCUCCUAAGGAGAAGACUGCGGGUUAGAGUCCCGUAAGGAACG | ≤ 0.5
GCUCCGUUGGCGUAAUGGUAACGCGUCUCCCUCCGAAGGAGAAGACUGCGGAUUCGAGUCCCGUAUGGAACG | ≤ 0.5
GUUCCGUUGGCGUUAUAGUAAUGCGUCUCCCUGCUAAGGAGAAGACUGCGGGUUCGAGUCCCGUACUGAACG | 0.613
GUUCCGUUGGCGUAACGGUAACGCGUCUCCCUCCUAAGGAGAAGACUGCGGGUACGAGUCCCGUAUGGAACG | ≤ 0.5
GUUCCGUUGACGUAAUGGUAACCCGUCUUCCUCCUUAGGAGAAGACUGCGGGUUCGAGUCCCGUACGGAACG | ≤ 0.5
GUUCCGUUCGCGUAGUGGUAAGGCGUCUCCCUCCUAAGGAGAAGACUGCGGGUUCGAGUCCCGUACGGAACG | ≤ 0.5
GUUCCGUUGGCGUAAUGGUACCGCGUCUCCGUCCUAAGGAGAAGACUGCGGGUUCGAGUCCCGUACGGUACG | ≤ 0.5
GUUCCGUUGGGGUAAUGGUAACGCGUUUCCCUCCUAAGGAGAAGACUGCGGGUUCGAGUCCCGUAUGGAACG | ≤ 0.5
GUUCCGAUGGCGUAAUGGUAACGCGUCUCCCUCCUAAGGCGAAGACUGCGGGUUCGAGUCCCGUACGGAACG | 0.724
GUUGCGUUGGUGUAAUGGUAACGCGUCUGCCUCCUAAGGAGAAGACUGCGGGUUCGAGUCCCGUACGAAACG | ≤ 0.5
GUUCCGUUGGCGUAAUGGUAACGCGUCUCGCUCCUAAGGGGAAGACUGCGGGAUCGAGUCCCGUACGGAACG | ≤ 0.5
GUUCCGUUGGCGUGAUGGUAACGCGACUCCCUCCUAUGGAAAAGACUGCGGGUUCGAGUCCUGUACGGAACG | ≤ 0.5
GUUCCGUUGGCGUCAUGGUAACGCGUCUCCGUCCUAAGGAGAAGACUGCGGGUUCGAGUCACGUACGGAACG | ≤ 0.5
GUUCCGGCGGCGUAAUGGUAACGCGUCGCCCUCCUAAGGAGACGACUGCGGGUUCGAGUCCCGUACGGAACG | ≤ 0.5
GUUCCGUUGGGGUAAUGGUAACGCGUCUUCCUCCUAAGGAGAAGACUGCGGGUUCGAGUCACGUACGGAACG | ≤ 0.5
GUUCCGUUGGCGUAAUGGUCACGCGUCUCCUUCCUAAGGAGAAGACUGCGGGUUCGAGUCCCGUACGAAACG | ≤ 0.5
GUUCCGUUGGCGUAAUGGUAACGCGUCUCCCUCCUAAGCAGAAGAUUGCGGGUUCAAGUCCCGUACGGAACG | 0.694
GCUCCGGUGGCGUAGUGGUAACGCGUCUCCCUCCUAAGGAGAAGUCUGCAGGUUCGCGUCCCGUACGGUACG | ≤ 0.5
GUUCCGUUGGCGUAAUGGUAACGCGUCUCCCUCCUAAGGAGCAGACUGCGGGUCCGAGUCCCGUACGGAACG | 0.796
GUUCCGUUGGCGUAAUGGUAACGCGUUUCCCUCCUAUGGAGAAGACGGCGGGUUUGAGUCCCAUGCGGAACG | ≤ 0.5
GUUCGGUUGGCGUAAUGGUAACGCGUCUCGCUCCUAAGGAGAAGACUGCGGGUUCGAGUCCCGUCUGGAACG | ≤ 0.5
GUUCCGUUGGCGUAAUGGUAACGCGUCUCCCUCCUAAGGAGAAAACUGCGGGUUAGAGACCCGUACGGAACG | ≤ 0.5

Variant | yeast fitness
GUUCCGUUGGCGUAAUGGUAACGCGUCUCCCUCCUAAGGAGAAAGCUGCGCGUUCGAGUCCCGUAUGGCACG | 0.576
GUUCCGUUGGAGUAAUGGUAACGCGUCUCCCUCCUAAGGAGAAGACUGCCGGUUCGAGUCCGGUACGGAACG | ≤ 0.5
GUUCCGUUGGUGUACUGGUAACGCGUCUCCCUCCUAAGGAGAAGACUGCGGGUUCAAGUCCCGUAUGGAACG | ≤ 0.5
GUUCCGUUGGCGUAAUGGUAACGUGUCUUGUUCCUAAGGAGAAGACUGCGGGUUCGAGUGCCGUACAGAACG | ≤ 0.5
GUUCCGUUGGCGUAAUGGUAACGCGUUUCCCUCCUAAGGAGAAGACUGCGGAUUCGAGUCCCGUACGGAACG | 0.7
GUUCCGUUGGCGUAACGGUAACGCGUCUCCCUCCUAAGGAGGAGACUGCGGGUUCGAGUCCCGUACGGAACG | 0.904
GUUCCGUUGACGUAAUGGCAACGCGUCUCCCUCCUAAGGAGAAGACUAGGGGUUCGAGUCCCGUACGGAACG | 0.56
GUUCCGUCGGCGGAAUGGUAAUGCGUCUCCCUCCUUAGGAGAAGACUGCGGGUUCGAGUCCCGUACGGAACG | ≤ 0.5
GUUCCGUUGGCUUAAUGGUAACGCGUCUCCCUCCUGAGGAGAAGACUGCGGGUUCGAGUCCGGUACGGAACG | ≤ 0.5
GUUCCGUUGGCGUUAUGGUAACGCGUCUCUCUCCUAAGGAGAAGACUGCGGGUUCGAGUACCGUAUGGAACG | 0.618
GUUCCGUUGGCGUAAUGGUACCACGUCUCCCUCCUACGGAGAAGACUGCGGGUUCGACUCCCGUACGGAACG | ≤ 0.5
GUUCGGUUGGCGUAAUGGUAACGCGCCUCCCUCGUAAGGAGAAGACUGCGGGCCCGAGUCCCGUACGGAACG | ≤ 0.5
GUUCCGUUGGCAUAAUGAUAGCGUGUCUUCCUCCUAAGGAGAAGACUGCGGGUUCGUGUCCCGUACGGAACG | ≤ 0.5
GUUCCGUUGGCGUACUGGUAACGAGUCUCCCUCCUAAGGAGAUGACUGCGGGUUCGAGUCCCGUACGGAACG | ≤ 0.5
GUUCCGUUGGCGUAAUAGUAACGCGUCUCCCUCCUAACGAGAAGACUCCGGGAUCGAGUCUCGUACGGAACG | ≤ 0.5
GUUCCGUUGGCGUAAUGGUAACGCGUCUCCCUCCUAAGGAGAAGACUGCGGGUUCGUGUCCCGAACGGAACG | 0.678
GUUCCGUUAGCGUAAUGGUAACGCGUCUCCGUCUUAAGGAGAAGACUGCGGGUUCGGGUCCCGUACGGAACG | ≤ 0.5
GUUCCGUUGGCGUAAUGGUAACGUGUCUCCCUCCUAAGGAGAAGACUGCGGGUUCGUGUCUCGUACGGAACG | ≤ 0.5
GUUCCGUUGGCGUAAUGGUCACGGGUAUCCCUCCUAAGGAGAAGACUGCGGGUUCGAGUCCCGUACGGAACG | ≤ 0.5
GUUCCAUUGGCGUAAUGGUCACGCGUCUCUCACCUUUGGAGAAGACUGCGGGUUCGAGUCCUGUACGGAACG | ≤ 0.5
GUUCCGUUGGCGUAAUGCUAACGCGUCUCCCUCCUAAGGAGAAGUCUGCGGAUUCGAGUCCCGUUCGGAACG | ≤ 0.5
GUUCCGUUGGCAUAAUGGCAACCCGUCUCCCUCCUAAGGAGAAGACUGCGGGUUCGAGUCCCGUACGGAACG | ≤ 0.5
GUUCCGUUGGCGUAAUGGUAAUGCGUGUCCCUCCUAAGGCGAAGACUGAGGGUUCGAGUCCCGUACGGAUCG | ≤ 0.5
GUUCCGUUGGCGUAAUGGUAACGAGUCUCCCUCCUAAGCAGGAGACUGCGGGUUUGAGUCCCGUACGGAACG | ≤ 0.5
GUUCCGUUGGCGUAAUGGUAACGCGUUUCUCUCCUAAGGAGGAGACUGCGGGUUCGAGUCCCGUAUGGAACG | ≤ 0.5

Reference: the RNAGym collection of RNA variant scans (doi:10.1126/science.aae0568)
